One experiment addresses CDK9/Cyclin T1 complex (Homo sapiens, UniProt P50750). Nature of the experiment: CDK9 kinase inhibition assay (Caliper/LabChip EZ Reader). The settings on record: read-out: CDK9 IC50; CDK9/Cyclin T1 8 nM, ATP 2 mM, 15 min at 27° C.
Experiment [1] has as its target CDK7/Cyclin H/MAT1 complex (Homo sapiens, UniProt P50613). The experiment can be described thus: CDK7 kinase inhibition assay (Caliper/LabChip EZ Reader). The following applies: read-out: CDK7 IC50; CDK7/Cyclin H/MAT1 6 nM, ATP 2 mM, 35 min at 27° C.
For experiment [2], the target named is CDK12 (aa686-1082)/Cyclin K complex (Homo sapiens, UniProt Q9NYV4). The experiment can be described thus: CDK12 kinase inhibition assay (Caliper/LabChip EZ Reader). The following applies: read-out: CDK12 IC50; CDK12 (aa686-1082)/Cyclin K 50 nM, ATP 2 mM, 3 hr at 27° C.
The subject of the next experiment is COV318 cells. The experiment can be described thus: Inhibition of cell proliferation (CyQUANT Direct), COV318. The following applies: read-out: COV318 cell proliferation inhibition IC50, COV318, 72-hour. The protocol: (§1) HCC70 and MB453 cells are cell lines derived from human triple negative breast cancer COV318 and COV504 cells are cell lines derived from human ovarian cancer. Representative compounds of the invention were tested at different concentrations (from 4 μM to 126.4 pM; 0.5 log serial dilutions) for their ability to inhibit the proliferation of each of these cell lines. Known CDK inhibitors dinaciclib or N-((1S,3R)-3-((5-chloro-4-(1H-indol-3-yl) pyrimidin-2-yl)amino)cyclohexyl)-5-((E)-4-(dimethylamino)but-2-enamido)picolinamide and triptolide were used as positive controls. Cells were seeded at approximately 2,000 cells/well and grown in ATCC-formulated RPMI-1640 Medium (ATCC 30-2001)+10% FBS. The cells were cultured at 37° C. in a humidified chamber in the presence of 5% CO2. Proliferation assays were conducted over a 72-hour time period. CyQUANT® Direct Cell Proliferation Assay (Life Technologies, Chicago, Ill. USA) was used to assess the anti-proliferative effects of the compounds following manufacturer's directions and utilizing the reagents supplied with the CyQUANT® Direct Cell kit. […]

The chains behind the UniProt entries cited, without tags or fusion partners. Residues count along the entry.
UniProt P50750, whole entry: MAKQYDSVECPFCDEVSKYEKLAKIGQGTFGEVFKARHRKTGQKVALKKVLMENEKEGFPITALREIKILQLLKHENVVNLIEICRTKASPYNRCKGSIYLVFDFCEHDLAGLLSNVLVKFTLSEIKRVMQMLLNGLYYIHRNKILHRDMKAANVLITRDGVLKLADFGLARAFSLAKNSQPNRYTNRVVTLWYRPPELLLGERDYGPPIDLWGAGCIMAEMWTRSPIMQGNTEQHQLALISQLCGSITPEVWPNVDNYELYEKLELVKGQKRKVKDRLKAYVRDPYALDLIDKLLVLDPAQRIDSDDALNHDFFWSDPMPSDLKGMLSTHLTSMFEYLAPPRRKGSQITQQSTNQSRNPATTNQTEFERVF
UniProt P50613, whole entry: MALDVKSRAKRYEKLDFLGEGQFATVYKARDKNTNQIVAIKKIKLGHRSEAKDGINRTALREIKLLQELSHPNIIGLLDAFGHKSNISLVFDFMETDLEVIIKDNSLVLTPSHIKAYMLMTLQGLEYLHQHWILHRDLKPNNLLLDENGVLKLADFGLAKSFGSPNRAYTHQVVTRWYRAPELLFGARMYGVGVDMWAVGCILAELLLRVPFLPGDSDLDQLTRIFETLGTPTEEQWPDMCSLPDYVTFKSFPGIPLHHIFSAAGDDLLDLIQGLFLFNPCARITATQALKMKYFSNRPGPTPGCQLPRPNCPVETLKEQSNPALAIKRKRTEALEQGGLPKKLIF
UniProt Q9NYV4, 686-1082 limits assumed: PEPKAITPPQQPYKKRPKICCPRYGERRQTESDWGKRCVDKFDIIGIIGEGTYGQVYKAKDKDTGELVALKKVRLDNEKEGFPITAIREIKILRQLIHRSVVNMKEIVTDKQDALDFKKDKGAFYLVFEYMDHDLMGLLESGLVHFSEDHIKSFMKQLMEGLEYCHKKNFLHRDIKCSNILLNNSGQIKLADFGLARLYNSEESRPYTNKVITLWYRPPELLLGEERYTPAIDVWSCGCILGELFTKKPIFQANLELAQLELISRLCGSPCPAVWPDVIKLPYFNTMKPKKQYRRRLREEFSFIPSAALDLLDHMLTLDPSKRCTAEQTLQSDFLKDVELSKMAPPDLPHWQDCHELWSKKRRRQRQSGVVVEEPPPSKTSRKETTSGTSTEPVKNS
UniProt P51946, whole entry partner: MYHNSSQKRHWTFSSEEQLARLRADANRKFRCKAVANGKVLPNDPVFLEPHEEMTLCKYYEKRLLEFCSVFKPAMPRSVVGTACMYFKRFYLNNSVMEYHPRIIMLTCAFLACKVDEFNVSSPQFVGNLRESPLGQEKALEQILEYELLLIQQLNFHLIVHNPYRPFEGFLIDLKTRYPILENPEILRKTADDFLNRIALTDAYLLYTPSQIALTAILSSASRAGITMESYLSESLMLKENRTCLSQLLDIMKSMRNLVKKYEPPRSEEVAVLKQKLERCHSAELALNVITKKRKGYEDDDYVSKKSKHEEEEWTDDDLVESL
UniProt P51948, whole entry partner: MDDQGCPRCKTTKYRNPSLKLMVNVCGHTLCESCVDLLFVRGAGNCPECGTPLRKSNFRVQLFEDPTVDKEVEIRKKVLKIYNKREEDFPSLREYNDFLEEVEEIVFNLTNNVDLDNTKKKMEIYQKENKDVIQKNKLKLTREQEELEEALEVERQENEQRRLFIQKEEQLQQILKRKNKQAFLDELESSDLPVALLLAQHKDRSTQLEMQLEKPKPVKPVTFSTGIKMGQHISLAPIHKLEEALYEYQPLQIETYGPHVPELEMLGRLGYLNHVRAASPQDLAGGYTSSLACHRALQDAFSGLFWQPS
UniProt O75909, whole entry partner: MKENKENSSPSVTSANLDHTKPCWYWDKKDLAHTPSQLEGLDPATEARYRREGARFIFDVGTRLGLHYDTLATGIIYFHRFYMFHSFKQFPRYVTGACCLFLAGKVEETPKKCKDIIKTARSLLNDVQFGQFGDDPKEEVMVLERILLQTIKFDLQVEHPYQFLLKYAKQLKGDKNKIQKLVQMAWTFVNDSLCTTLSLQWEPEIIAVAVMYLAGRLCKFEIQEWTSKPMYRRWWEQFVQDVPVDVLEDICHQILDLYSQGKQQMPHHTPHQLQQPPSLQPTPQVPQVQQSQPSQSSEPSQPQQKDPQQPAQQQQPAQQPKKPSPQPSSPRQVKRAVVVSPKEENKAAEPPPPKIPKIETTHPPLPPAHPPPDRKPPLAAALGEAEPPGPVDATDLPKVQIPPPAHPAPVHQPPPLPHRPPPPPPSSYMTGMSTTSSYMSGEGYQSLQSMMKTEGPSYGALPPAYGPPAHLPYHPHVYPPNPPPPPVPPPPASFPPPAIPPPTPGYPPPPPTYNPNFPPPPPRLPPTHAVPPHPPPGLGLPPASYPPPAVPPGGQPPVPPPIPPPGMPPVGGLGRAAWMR
UniProt O60563, whole entry partner: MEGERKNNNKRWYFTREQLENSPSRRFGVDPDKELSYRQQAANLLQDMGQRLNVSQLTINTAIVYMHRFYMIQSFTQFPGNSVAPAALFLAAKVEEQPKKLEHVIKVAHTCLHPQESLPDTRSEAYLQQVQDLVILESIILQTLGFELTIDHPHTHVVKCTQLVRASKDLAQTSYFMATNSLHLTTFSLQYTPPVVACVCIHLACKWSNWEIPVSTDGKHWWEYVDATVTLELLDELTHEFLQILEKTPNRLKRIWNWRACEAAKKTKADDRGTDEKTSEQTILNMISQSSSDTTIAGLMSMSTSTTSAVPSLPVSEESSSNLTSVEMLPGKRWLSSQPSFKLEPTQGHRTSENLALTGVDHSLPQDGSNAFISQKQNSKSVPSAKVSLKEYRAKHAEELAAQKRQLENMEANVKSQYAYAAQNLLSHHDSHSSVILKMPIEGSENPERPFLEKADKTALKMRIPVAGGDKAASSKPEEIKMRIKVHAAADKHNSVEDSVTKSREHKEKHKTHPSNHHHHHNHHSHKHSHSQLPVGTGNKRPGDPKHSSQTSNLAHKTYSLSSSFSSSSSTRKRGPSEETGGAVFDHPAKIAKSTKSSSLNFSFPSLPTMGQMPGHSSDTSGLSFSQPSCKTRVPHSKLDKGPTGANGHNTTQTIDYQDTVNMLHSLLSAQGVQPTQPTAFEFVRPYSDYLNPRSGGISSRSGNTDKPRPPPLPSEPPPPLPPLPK

The next experiment deals with MB453 cells. The experiment can be described thus: Inhibition of cell proliferation (CyQUANT Direct), MB453. The following applies: read-out: MB453 cell proliferation inhibition IC50, MB453, 72-hour. As for the experimental part:
as §1

For the next experiment, the system named is COV504 cells. Nature of the experiment: Inhibition of cell proliferation (CyQUANT Direct), COV504. The following applies: read-out: COV504 cell proliferation inhibition IC50, COV504, 72-hour. As for the experimental part: as §1
For the next experiment, the target named is CDK2/Cyclin E1 complex (Homo sapiens, UniProt P24941). Nature of the experiment: CDK2 kinase inhibition assay (Caliper/LabChip EZ Reader). The settings on record: read-out: CDK2 IC50; CDK2/Cyclin E1 0.5 nM, ATP 2 mM, 35 min at 27° C.
In a further experiment the test system is HCC70 cells. The experiment can be described thus: Inhibition of cell proliferation (CyQUANT Direct), HCC70. The settings on record: read-out: HCC70 cell proliferation inhibition IC50, HCC70, 72-hour. The protocol: as §1

The match of structure and compound is tentative.

As for `Cc1noc(C)c1-c1ccc2c(-c3nc(N[C@H]4CC[C@H](C)NC4)ncc3C(F)(F)F)n[nH]c2n1`, the IC50 is > 0.5 µM on CDK9/Cyclin T1 complex; < 0.03 µM in experiment [1]; > 0.5 µM in experiment [2]; > 1 µM in the experiment on COV318 cells; 0.1 to 0.5 µM with MB453 cells; 0.5 to 1 µM in the experiment with COV504 cells. For the same molecule, the IC50 on CDK2/Cyclin E1 complex was > 0.5 µM; with HCC70 cells, > 1 µM.
